Results from article PMC12159841.
No constants are given. Whether binding was seen depends on the method and setting. In cells and extracts the contact can be indirect. Some results given as binding are weak or reduced against the parent protein; the word gives no strength.

T1: Tissue kallikrein-related peptidase 8 (KLK8) (UniProt Q61955)
T1 sequence: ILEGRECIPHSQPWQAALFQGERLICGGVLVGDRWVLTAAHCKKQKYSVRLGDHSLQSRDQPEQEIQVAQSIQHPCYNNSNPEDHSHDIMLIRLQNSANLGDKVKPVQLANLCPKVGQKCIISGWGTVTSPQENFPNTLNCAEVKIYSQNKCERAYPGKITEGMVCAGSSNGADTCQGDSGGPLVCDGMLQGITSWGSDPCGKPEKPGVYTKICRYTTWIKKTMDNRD

T2: CD44 (mouse (endogenous in BV2)) (UniProt P15379)
T2 sequence: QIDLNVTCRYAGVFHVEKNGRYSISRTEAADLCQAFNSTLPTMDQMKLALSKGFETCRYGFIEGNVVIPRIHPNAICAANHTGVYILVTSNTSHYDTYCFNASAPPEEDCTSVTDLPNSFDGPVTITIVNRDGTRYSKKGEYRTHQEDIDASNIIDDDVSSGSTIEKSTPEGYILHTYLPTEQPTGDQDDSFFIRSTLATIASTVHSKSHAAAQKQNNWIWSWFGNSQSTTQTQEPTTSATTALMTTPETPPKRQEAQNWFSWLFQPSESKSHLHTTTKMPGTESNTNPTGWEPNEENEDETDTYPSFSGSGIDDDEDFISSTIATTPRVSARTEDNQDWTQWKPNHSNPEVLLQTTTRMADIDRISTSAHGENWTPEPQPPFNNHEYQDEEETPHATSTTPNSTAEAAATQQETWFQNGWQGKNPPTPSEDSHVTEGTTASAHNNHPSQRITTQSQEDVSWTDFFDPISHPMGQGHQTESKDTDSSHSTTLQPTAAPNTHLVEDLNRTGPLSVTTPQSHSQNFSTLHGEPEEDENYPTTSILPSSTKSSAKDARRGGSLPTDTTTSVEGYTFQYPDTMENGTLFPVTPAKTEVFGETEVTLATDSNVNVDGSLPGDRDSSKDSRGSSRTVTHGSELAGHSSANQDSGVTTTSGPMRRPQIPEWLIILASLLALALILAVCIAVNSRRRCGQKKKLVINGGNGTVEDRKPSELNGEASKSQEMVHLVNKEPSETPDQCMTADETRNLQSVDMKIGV


Experiments:
[1] = molecular target: T1, Tissue kallikrein-related peptidase 8 (KLK8); assay: co-IP; BV2 cell lysates (RIPA buffer) incubated with antibodies against KLK8 or CD44 at 4 °C for 16 h, protein A and G sepharose beads, four washes, western blot; IgG as control
[2] = molecular target: T2, CD44 (mouse (endogenous in BV2)); assay: as above

binding [1] | binding [2] | Binder
binds | – | CD44 (receptor, UniProt P15379 23-778) QIDLNVTCRYAGVFHVEKNGRYSISRTEAADLCQAFNSTLPTMDQMKLALSKGFETCRYGFIEGNVVIPRIHPNAICAANHTGVYILVTSNTSHYDTYCFNASAPPEEDCTSVTDLPNSFDGPVTITIVNRDGTRYSKKGEYRTHQEDIDASNIIDDDVSSGSTIEKSTPEGYILHTYLPTEQPTGDQDDSFFIRSTLATIASTVHSKSHAAAQKQNNWIWSWFGNSQSTTQTQEPTTSATTALMTTPETPPKRQEAQNWFSWLFQPSESKSHLHTTTKMPGTESNTNPTGWEPNEENEDETDTYPSFSGSGIDDDEDFISSTIATTPRVSARTEDNQDWTQWKPNHSNPEVLLQTTTRMADIDRISTSAHGENWTPEPQPPFNNHEYQDEEETPHATSTTPNSTAEAAATQQETWFQNGWQGKNPPTPSEDSHVTEGTTASAHNNHPSQRITTQSQEDVSWTDFFDPISHPMGQGHQTESKDTDSSHSTTLQPTAAPNTHLVEDLNRTGPLSVTTPQSHSQNFSTLHGEPEEDENYPTTSILPSSTKSSAKDARRGGSLPTDTTTSVEGYTFQYPDTMENGTLFPVTPAKTEVFGETEVTLATDSNVNVDGSLPGDRDSSKDSRGSSRTVTHGSELAGHSSANQDSGVTTTSGPMRRPQIPEWLIILASLLALALILAVCIAVNSRRRCGQKKKLVINGGNGTVEDRKPSELNGEASKSQEMVHLVNKEPSETPDQCMTADETRNLQSVDMKIGV
– | binds | Tissue kallikrein-related peptidase 8 (KLK8) (enzyme, UniProt Q61955 33-260) ILEGRECIPHSQPWQAALFQGERLICGGVLVGDRWVLTAAHCKKQKYSVRLGDHSLQSRDQPEQEIQVAQSIQHPCYNNSNPEDHSHDIMLIRLQNSANLGDKVKPVQLANLCPKVGQKCIISGWGTVTSPQENFPNTLNCAEVKIYSQNKCERAYPGKITEGMVCAGSSNGADTCQGDSGGPLVCDGMLQGITSWGSDPCGKPEKPGVYTKICRYTTWIKKTMDNRD
